Source: publication PMC9751095
No constants are given. Whether binding was seen depends on the method and setting. For some assays here: In cells and extracts the contact can be indirect. Some binding calls cover weakened binding; strength is not graded here. Sequences can lack the tags named with a protein.

By UniProt entry, the sequences of proteins in these tests, tags left out. Residues count along the entry.
UniProt P30405, residues 30-207: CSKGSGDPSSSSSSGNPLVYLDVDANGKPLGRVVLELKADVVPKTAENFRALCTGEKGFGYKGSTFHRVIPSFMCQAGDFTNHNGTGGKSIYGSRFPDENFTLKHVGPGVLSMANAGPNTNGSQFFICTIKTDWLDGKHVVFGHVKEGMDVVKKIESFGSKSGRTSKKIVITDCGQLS

Key:
[1] = target: T1, oligomycin sensitivity-conferring protein (OSCP) subunit of F-ATP synthase (human (endogenous in U87)) (UniProt P48047); assay: co-IP; immunoprecipitation of OSCP (beads with mouse monoclonal anti ATP50/OSCP) from solubilized mitochondria of U87 cells with or without TRAP1 (SCR, KO), overnight at 4 °C; Western blotting
T1 sequence: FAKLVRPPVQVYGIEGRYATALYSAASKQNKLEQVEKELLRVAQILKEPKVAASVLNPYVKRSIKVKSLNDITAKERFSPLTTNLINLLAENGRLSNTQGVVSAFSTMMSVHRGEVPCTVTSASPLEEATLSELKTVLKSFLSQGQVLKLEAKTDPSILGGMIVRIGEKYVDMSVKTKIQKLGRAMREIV

[2] = target: T1, oligomycin sensitivity-conferring protein (OSCP) subunit of F-ATP synthase (human (endogenous in U87)); assay: SEC; soluble fraction (0.7% digitonin) of mitochondria of U87 cells with or without TRAP1 (SCR, KO) on FPLC-Superdex S200 in 20 mM Tris-HCl pH 7.5, 10% glycerol, 10 mM β-mercaptoethanol, 0.5 M NaCl; fractions analyzed by Western blot

binding [1]: binds
binding [2]: binds
Substance: peptidyl-prolyl cis-trans isomerase cyclophilin D (from UniProt P30405 30-207) (enzyme)
